Assays:
[1] = tested on: K562 cell line, chronic myelogenous leukemia (CML); experiment: Activity in cell culture, K562 cell proliferation; type: cell-based; conditions: Homo sapiens, K562, 72 h, K562, 0.312×10^5 cells/ml, 10 μM to 0.156 μM
Excerpt: (§1) Imatinib was used as standard.

[2] = tested on: T315I cell line, chronic myelogenous leukemia (CML) mutant; experiment: Activity in cell culture, T315I cell proliferation; type: cell-based; conditions: 72 h, 0.625×10^5 cells/ml, 10 μM to 0.156 μM
Excerpt: as §1

IC50 [1]: 0.407 µM
IC50 [2]: 0.448 µM
SMILES: Cc1ccc(NC(=O)c2ccc(CN3CCN(C)CC3)cc2)cc1Nc1nccc(-c2cccnc2)n1 [Imatinib, reference compound]
